Assay results: US8535740B2, “Compositions from Nigella sativa” (priority 2002, dated 2013)
At least one structure is not confirmed: it was looked up by name or label, or the drawing left a doubt.

What was measured:
C2C12 myocytes = experiment: Lipolysis (glycerol / free fatty acid release) in C2C12 myocytes; assay type: cell-based, murine; conditions: test materials 5 or 2.5 μg/mL (FIG. 10)
Description: (§1) Cell culture and treatment-Culture and treatment of 3T3-L1 adipocytes and C2C12 myocytes was as described in Example 5. Concentrations of the forskolin positive control and test materials are listed in FIG. 9 for adipocytes and FIG. 10 for myocytes. Glycerol assay-Free fatty acid release from 3T3-L1 adipocytes or C2C12 myocytes was quantified by measuring glycerol secretion into the medium. Glycerol was measured spectrophotometrically using the Free Glycerol Determination Kit ([…], Sigma) and an EL 312e Microplate BIO-KINETICS spectrophotometer (BioTek, Winooski, Vt.). Data analysis-Glycerol release from adipocytes and myocytes was expressed, respectively, as the percent increase in free fatty acid secretion (FIG. 9) and relative glycerol content (glycerol index FIG. 10) ±95% confidence intervals of eight observations for one of three representative experiments.

3T3-L1 adipocytes = experiment: Lipolysis (glycerol / free fatty acid release) in 3T3-L1 adipocytes; assay type: cell-based, murine; conditions: forskolin 82 μg/mL, test materials 5 μg/mL (FIG. 9)
Description: as §1

With `C=C[C@@]1(C)CC(=O)[C@]2(O)[C@@]3(C)[C@@H](O)CCC(C)(C)[C@@H]3[C@H](O)[C@H](OC(C)=O)[C@@]2(C)O1` [forskolin] as the compound, how does the “free fatty acid release in myocytes” value (C2C12 myocytes) read?
The value was “induced free fatty acid release”.

And the “free fatty acid release in adipocytes” value (3T3-L1 adipocytes)?
The value was “induced free fatty acid release”.
